According to article PMC8274477:
No constants are given. Whether binding was seen depends on the method and setting. Some binding calls cover weakened binding; strength is not graded here.

The chains behind the UniProt entries cited, without tags or fusion partners. Residues count along the entry.
UniProt Q9NTU7, residues 28-201: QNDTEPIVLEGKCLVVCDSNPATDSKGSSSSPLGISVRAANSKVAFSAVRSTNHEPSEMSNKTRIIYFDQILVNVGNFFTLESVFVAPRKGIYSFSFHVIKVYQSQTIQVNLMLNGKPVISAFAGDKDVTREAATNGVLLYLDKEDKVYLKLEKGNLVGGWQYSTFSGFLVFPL
UniProt O94911: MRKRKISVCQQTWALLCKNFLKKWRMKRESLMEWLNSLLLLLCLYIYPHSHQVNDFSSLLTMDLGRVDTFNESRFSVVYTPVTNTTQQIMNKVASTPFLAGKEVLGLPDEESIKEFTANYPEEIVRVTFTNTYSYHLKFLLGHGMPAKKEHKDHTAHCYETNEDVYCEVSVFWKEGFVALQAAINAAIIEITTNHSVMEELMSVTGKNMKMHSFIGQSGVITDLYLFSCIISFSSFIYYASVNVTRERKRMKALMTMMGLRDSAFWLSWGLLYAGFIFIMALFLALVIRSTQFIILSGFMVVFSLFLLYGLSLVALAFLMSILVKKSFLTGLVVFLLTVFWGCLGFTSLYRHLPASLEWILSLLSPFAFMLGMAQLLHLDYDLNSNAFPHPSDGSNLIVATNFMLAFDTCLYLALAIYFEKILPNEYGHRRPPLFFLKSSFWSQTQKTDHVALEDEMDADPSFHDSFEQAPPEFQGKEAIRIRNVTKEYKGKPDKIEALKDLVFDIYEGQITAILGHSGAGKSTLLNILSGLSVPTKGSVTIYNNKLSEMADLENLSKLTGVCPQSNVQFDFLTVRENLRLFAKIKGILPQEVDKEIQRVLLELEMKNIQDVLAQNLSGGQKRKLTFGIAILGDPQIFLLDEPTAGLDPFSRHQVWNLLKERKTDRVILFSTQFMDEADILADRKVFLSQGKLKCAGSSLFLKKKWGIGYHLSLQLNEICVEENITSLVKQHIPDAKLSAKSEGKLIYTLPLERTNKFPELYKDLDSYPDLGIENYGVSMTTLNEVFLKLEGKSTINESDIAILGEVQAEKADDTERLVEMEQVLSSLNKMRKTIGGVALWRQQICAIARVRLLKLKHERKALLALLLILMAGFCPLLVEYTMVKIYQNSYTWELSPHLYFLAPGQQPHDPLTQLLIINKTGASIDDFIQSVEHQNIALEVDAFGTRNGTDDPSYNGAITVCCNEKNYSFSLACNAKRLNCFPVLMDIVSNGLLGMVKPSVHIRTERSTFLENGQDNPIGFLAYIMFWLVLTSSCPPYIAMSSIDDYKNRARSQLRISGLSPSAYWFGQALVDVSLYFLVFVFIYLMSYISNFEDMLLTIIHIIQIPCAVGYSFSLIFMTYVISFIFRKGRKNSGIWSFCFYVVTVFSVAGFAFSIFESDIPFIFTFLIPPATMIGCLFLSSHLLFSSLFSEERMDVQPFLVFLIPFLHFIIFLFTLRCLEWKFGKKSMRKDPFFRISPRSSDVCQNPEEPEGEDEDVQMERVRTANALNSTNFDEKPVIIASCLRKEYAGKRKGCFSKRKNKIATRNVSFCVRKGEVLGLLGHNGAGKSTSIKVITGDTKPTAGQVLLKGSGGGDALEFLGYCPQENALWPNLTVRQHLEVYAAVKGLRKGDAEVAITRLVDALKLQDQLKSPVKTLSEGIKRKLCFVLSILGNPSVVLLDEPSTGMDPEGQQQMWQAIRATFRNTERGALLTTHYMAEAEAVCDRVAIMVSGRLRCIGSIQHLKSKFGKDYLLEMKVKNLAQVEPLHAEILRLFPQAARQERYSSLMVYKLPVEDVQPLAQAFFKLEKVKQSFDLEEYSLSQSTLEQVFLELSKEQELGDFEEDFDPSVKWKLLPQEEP
UniProt Q05397: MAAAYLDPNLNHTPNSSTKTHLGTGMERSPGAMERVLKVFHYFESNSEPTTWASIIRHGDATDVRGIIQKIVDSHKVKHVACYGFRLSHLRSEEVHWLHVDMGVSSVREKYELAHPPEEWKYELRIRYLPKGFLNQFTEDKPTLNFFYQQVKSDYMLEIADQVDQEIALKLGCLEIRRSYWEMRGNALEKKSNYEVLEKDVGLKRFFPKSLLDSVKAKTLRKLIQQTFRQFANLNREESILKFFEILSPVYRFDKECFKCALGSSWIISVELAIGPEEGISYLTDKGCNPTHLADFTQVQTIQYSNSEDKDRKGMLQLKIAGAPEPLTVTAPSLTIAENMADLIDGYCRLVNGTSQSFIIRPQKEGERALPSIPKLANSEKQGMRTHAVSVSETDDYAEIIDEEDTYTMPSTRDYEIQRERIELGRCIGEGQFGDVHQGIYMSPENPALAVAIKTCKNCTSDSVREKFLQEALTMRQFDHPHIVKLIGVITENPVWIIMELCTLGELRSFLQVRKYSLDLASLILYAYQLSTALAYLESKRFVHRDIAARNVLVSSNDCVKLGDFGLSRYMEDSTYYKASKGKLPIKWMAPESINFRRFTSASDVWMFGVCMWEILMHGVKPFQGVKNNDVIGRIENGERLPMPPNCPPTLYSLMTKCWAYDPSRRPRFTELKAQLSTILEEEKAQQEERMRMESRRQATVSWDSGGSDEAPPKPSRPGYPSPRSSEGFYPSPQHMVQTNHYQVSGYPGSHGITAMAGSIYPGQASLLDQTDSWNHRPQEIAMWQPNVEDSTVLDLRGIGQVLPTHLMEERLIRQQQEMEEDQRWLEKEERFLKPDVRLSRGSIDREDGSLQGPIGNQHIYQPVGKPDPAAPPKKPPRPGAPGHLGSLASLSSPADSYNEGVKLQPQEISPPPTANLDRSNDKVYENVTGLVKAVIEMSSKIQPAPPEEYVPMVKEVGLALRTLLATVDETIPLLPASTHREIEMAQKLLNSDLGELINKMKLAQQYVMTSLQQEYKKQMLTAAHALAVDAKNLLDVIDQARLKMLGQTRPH
UniProt P04406: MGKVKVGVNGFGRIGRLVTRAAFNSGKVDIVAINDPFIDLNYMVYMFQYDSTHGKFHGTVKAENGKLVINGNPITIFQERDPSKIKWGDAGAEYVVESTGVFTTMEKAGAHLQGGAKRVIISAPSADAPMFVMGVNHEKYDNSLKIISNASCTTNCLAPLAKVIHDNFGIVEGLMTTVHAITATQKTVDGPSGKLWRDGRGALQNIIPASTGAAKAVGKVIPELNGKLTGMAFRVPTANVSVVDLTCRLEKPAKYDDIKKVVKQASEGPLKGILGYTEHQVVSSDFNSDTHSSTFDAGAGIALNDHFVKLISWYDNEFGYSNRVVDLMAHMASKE
UniProt O43432: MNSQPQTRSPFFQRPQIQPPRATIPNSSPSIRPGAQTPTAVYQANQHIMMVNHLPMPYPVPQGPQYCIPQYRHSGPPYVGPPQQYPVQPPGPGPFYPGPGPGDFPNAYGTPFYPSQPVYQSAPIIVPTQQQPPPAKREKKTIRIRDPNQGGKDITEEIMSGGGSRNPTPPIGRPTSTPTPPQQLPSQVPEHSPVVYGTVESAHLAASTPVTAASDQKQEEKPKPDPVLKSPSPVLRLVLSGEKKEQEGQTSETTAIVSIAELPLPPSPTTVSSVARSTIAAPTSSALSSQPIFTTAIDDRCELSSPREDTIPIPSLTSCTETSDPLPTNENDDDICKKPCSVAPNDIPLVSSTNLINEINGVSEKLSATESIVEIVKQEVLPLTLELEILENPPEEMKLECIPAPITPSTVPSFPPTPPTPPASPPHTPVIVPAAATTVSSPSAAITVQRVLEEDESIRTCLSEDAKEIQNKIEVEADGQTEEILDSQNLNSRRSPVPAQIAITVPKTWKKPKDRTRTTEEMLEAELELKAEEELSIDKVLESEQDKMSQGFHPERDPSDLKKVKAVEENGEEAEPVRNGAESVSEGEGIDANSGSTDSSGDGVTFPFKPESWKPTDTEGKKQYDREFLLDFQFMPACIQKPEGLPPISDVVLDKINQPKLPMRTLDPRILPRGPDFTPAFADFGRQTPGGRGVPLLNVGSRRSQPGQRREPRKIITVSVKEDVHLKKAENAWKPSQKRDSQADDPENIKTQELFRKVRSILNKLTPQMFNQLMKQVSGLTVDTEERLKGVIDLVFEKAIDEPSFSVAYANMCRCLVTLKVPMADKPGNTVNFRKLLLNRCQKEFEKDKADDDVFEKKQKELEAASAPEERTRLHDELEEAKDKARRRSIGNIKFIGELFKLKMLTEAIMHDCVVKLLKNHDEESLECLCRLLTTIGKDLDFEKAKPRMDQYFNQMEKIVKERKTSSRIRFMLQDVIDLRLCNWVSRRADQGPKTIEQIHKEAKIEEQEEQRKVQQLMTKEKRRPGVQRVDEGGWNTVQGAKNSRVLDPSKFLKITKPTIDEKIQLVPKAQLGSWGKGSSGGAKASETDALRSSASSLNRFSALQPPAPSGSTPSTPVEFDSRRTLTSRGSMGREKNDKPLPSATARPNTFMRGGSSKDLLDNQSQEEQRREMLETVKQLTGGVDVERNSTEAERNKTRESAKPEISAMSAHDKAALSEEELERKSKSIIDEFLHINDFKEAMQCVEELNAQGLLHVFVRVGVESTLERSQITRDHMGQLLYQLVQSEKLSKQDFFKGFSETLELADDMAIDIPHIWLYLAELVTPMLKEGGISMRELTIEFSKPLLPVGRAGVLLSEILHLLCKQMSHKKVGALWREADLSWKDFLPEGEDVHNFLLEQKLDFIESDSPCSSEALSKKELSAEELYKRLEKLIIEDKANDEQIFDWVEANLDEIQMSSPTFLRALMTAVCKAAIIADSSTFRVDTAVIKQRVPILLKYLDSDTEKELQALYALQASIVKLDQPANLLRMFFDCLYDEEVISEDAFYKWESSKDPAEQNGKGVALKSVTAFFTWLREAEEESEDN
UniProt O43823: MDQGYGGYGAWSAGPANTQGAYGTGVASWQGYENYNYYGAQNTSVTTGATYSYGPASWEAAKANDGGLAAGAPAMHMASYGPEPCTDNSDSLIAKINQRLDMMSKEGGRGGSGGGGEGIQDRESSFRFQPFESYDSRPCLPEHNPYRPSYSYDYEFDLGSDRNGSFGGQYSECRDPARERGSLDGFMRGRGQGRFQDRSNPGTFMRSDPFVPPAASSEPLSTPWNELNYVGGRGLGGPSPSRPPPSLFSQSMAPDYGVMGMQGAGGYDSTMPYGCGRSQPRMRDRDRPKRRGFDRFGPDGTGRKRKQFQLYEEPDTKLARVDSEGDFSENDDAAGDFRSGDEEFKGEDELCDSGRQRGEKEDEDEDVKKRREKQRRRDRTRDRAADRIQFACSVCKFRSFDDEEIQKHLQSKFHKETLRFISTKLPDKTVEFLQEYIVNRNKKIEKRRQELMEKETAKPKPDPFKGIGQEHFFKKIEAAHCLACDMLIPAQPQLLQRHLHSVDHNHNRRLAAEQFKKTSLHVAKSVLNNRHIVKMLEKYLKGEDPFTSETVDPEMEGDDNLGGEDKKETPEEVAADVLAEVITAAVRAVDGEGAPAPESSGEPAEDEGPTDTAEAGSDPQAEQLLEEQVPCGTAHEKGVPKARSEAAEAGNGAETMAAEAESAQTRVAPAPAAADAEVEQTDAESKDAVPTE
UniProt O75340: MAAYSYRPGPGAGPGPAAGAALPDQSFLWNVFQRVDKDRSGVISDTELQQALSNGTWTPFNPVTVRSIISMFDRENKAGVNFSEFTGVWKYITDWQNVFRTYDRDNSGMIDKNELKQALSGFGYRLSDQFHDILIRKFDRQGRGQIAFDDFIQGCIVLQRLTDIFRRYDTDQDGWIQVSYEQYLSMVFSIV
UniProt Q9BUP3: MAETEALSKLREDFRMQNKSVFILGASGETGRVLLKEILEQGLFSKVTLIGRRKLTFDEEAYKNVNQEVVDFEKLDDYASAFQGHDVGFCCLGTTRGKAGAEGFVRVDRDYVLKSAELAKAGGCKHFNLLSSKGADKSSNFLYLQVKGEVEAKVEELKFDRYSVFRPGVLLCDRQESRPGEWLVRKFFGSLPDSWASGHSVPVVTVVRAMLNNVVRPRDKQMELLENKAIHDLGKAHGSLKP

How the values were obtained:
Experiment in all cases: peptide or protein array; HuProt human proteome microarray; 5 ug/5 ml biotin-labelled LUBAC or OTULIN in solution, 1 h at room temperature; Cy5-streptavidin, scanned at 635 nm; BSA as negative control; hits: Z-score >= 3 and I_(Mean_Ratio) >= 1.4; both purified
[1] = biological target: CBLN4 (human) (UniProt Q9NTU7)
[2] = biological target: T1, STAU2 (human) (UniProt Q9NUL3)
T1 sequence: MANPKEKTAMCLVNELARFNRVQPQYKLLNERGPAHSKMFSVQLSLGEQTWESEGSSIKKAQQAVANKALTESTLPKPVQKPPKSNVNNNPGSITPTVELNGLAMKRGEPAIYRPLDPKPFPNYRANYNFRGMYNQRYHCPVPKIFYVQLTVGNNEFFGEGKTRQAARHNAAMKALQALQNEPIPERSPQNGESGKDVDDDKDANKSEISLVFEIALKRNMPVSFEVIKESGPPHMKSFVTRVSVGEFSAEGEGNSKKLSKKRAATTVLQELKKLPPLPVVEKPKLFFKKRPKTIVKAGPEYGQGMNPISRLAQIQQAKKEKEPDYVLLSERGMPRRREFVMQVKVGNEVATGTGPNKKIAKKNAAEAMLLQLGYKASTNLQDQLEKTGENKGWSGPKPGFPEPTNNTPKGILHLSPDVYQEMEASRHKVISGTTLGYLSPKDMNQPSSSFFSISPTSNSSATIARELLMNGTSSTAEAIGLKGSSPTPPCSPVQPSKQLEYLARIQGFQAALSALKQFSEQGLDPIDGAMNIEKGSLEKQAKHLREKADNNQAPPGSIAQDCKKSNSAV

[3] = biological target: ABCA8 (human) (UniProt O94911)
[4] = biological target: T2, KLHDC9 (human) (UniProt Q8NEP7)
T2 sequence: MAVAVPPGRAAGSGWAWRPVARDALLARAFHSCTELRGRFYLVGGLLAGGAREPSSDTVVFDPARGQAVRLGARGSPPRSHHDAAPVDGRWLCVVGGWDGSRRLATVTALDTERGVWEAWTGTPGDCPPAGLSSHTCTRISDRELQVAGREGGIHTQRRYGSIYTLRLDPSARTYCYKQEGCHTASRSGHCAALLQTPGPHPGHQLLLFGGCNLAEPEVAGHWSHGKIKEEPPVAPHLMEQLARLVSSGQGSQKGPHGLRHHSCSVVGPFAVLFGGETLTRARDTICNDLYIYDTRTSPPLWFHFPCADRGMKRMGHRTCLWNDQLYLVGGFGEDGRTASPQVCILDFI

[5] = biological target: PTK2 (human) (UniProt Q05397)
[6] = biological target: GAPDH (human) (UniProt P04406)
[7] = biological target: T3, MPST (human) (UniProt P25325)
T3 sequence: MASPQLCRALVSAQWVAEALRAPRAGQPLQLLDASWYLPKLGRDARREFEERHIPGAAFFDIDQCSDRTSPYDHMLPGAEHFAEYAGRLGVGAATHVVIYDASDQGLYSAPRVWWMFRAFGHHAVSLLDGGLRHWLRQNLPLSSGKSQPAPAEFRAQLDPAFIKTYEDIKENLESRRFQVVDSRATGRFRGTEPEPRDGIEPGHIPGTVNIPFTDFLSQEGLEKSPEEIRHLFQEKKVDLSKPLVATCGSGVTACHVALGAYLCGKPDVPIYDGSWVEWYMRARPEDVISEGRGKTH

[8] = biological target: EIF4G3 (human) (UniProt O43432)
[9] = biological target: AKAP8 (human) (UniProt O43823)
[10] = biological target: PDCD6 (human) (UniProt O75340)
[11] = biological target: HTATIP2 (human) (UniProt Q9BUP3)

Row | binding [1] | binding [2] | binding [3] | binding [4] | binding [5] | binding [6] | binding [7] | binding [8] | binding [9] | binding [10] | binding [11] | Substance
1 | binds | binds | binds | – | – | – | – | – | – | – | – | OTULIN (OTU deubiquitinase with linear linkage specificity, FAM105B), His-tagged, biotin-labelled (from UniProt Q96BN8 1-352) (enzyme)
2 | binds | binds | binds | binds | binds | binds | binds | binds | binds | binds | binds | linear ubiquitin chain assembly complex (LUBAC), purified as HIS-tagged HOIP with the subunit HOIL-1, biotin-labelled (from UniProt Q96EP0 1-1072; Q9BYM8 1-510)
